At least one read-out could not be matched to a standard name with certainty.
Target: thiamine pyrophosphate kinase 1 (TPK1) (Homo sapiens, UniProt Q9H3S4)
Test: Ability to be pyrophosphorylated by TPK1 (scoring as TPK1 substrate)
Assay type: biochemical
Details: substrate if slope of the initial rate exceeded 10% of that of thiamine; 0.1 or 0.5 mM thiamine analog

Sequences of proteins named here, by UniProt entry; tags and fusion partners are left off.
UniProt Q9H3S4, whole entry, species assumed: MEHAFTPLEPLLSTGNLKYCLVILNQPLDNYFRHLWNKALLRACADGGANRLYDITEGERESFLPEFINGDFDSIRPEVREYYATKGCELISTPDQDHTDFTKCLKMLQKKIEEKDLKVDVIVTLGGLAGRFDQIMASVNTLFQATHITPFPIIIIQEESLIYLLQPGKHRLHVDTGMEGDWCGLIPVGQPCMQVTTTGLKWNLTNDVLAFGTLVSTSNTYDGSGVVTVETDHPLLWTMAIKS

## CCCSS/C(CCOP(=O)(OCC)OCC)=C(/C)N(C=O)Cc1ccc(C)nc1N
  TPK1 substrate scoring (printed in the TPK-apoTK IC50 column): Not a Substrate (“NS”)
